Results on one molecule are retold here after US20210246203A1.

No constants are given. Whether binding was seen depends on the method and setting. Some binding calls cover weakened binding; strength is not graded here.

For experiment [1], the target named is T1, Astrotactin (ASTN1) recombinant protein (UniProt O14525).
T1 sequence (looked up): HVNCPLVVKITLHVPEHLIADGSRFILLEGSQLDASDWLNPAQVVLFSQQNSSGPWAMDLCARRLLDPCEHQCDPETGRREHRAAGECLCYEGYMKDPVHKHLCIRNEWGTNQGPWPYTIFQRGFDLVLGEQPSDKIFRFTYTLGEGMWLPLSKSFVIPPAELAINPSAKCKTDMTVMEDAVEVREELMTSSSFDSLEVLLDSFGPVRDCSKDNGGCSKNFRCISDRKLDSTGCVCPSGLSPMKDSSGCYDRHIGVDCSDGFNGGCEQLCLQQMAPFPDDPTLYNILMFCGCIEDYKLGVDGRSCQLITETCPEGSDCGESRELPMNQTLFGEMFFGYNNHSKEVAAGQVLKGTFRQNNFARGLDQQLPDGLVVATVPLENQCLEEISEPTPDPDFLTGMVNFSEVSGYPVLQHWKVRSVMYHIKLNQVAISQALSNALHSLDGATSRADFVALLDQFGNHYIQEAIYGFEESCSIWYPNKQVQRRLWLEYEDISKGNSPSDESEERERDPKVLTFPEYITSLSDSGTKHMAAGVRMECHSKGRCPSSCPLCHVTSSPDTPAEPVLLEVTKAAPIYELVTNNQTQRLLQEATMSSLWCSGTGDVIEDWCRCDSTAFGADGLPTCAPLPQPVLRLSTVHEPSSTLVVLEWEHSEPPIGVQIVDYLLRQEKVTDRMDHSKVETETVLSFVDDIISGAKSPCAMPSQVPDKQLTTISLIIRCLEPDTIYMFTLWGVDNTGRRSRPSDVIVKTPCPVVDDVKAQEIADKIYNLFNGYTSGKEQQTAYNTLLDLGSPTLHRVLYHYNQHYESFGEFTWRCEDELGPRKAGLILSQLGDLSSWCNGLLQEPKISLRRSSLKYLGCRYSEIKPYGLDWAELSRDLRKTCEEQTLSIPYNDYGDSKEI
The experiment is described as follows: ELISA on plate-coated ASTN1, OD 450 nm. On the technique in general: An ELISA detects its analyte on a solid surface through an enzyme-linked reagent.

Experiment [2] has as its target T1, Astrotactin (ASTN1) recombinant protein. The experiment is described as follows: binding assay with recombinant ASTN1 (FIG. 2).

B1: scFv3 antibody (scFv, V domains shown)
VH: EVQLVESGGGLVQPGGSLRLSCSVTGEPITSGFWDWVRQATGKGLEFVGMIWGADGNTDPDSVKGRFTISRENTKNSLYLQMNSLRAGDTAVYYCARDFYDYDVFYYAMDYWGQGTTVTVSS
VL: DIQLTQSPSTLSASVGDRVTITCRASQSVGNNKLAWYQQKPGKAPKLLIYKASNLASGVPSRFSGSGSGTEFTLTISSLQPDDFATYYCQQHDYPYTFGQGTKVEIK
On to B1, for which the binding entry in experiment [1] and in experiment [2] was “binds” in each case.
